# Experimental data as given in PubChem BioAssay AID1347076 (National Center for Advancing Translational Sciences (NCATS), 2019).
# The campaign covered roughly 400,000 compounds. About 13,000 (3.2%) were called active. Inconclusive means that the source gave no clear call. Such entries were picked first, then a sample of the others. Calls follow the shape of the dose curve; as a rule, active = well fitted cell-killing curve with a large enough effect; inconclusive = small, poorly fitted or top-dose-only effect, or effect the other way; inactive = flat fitted curve, though single readings scatter. Potencies of inconclusive entries are doubtful fits and often do not repeat.
# Assay: qHTS assay for MDR1-selective chemotherapeutics: Primary screen using the drug-selected MDR subline cells KB-V1; also: nearly all actives have a fitted effect of over 60% in size
# Settings: KB-V1 MDR cells viability, CellTiter-Glo, 72 h; series mostly up to 46.1 µM
# Method in brief: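 In this primary screen, KB-V1 cells overexpressing P-gp are incubated with library compounds (lowest to highest concentration) for 72 h at 37 degrees C before a luminescent ATP viability read.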
# Potency is read from the fitted curve at half-maximal effect.
row,Structure (SMILES),Potency
1,CCOC(=O)C1(Cc2cccc(OC)c2)CCCN(C(=O)CCc2cccnc2)C1 (stereo not given),"inconclusive: 29.1 µM [cytotoxic, single point]"
2,CCC(=O)Nc1cccc(-n2nnnc2SCC(=O)N(C(C)C)C(C)C)c1,"inconclusive: 18.4 µM [cytotoxic, single point]"
3,CC1Cc2ccccc2N1C(=S)Nc1ccc(S(N)(=O)=O)cc1 (stereo not given),active: 18.4 µM
4,Cc1c(Cl)cccc1Nc1nc(N)nc(CN2CCc3ccccc3C2)n1,"inconclusive: 29.1 µM [cytotoxic, single point]"
5,Cc1cc(NC(=O)CN(C)CC(=O)Nc2ccc(F)c(F)c2F)no1,"inconclusive: 14.6 µM [cytotoxic, partial curve]"
6,Clc1ccc2nc(-c3ccc4c(c3)OCO4)cn2c1,"inconclusive: 13 µM [cytotoxic, partial curve]"
7,COc1ccc(Nc2nc(NCc3ccco3)nc(N)c2[N+](=O)[O-])cc1,inactive
8,CCC(NC(=O)CN1CCN(C(=O)c2cccs2)CC1)c1ccc(C)cc1 (stereo not given),inactive
9,Cn1ccc2cc(S(=O)(=O)N3CCCN(C(=O)Nc4ccc(Br)cc4)CC3)ccc21,"inconclusive: 18.4 µM [cytotoxic, partial curve]"
10,CCN(CC)c1ccc(CN(C(=O)c2cc(OC)c(OC)c(OC)c2)C2CCS(=O)(=O)C2)cc1 (stereo not given),inactive
11,COc1cc(NC(=O)CCc2c(C)noc2C)c(Cl)cc1C(=O)O,inactive
12,COC(=O)CSC1=C(C#N)C(c2ccc(C)o2)CC(=O)N1 (stereo not given),"inconclusive: 29.1 µM [cytotoxic, single point]"
13,C=CCNc1ncnc2ccc(Br)cc12,active: 20.6 µM
14,C/C(=N\NC(=O)c1ccccc1O)c1ccc(NC(=O)Cc2ccccc2)cc1,active: 16.4 µM
15,COc1ccccc1C(=O)NCC(=O)Nc1ccc2c(c1)CCC2,"inconclusive: 9.2 µM [rising, partial curve, poor fit]"
16,CC1(C)Oc2ccc3ccc(=O)oc3c2/C(=C/NC2CCCCC2)C1=O,"inconclusive: 6.51 µM [cytotoxic, full curve, poor fit]"
17,COC(=O)[C@@]1(Cc2ccc(F)cc2)[C@H]2C(CC(=O)C(=O)N3CCCC3)C(=O)C[C@H]2CN1C(=O)c1ccccc1 (stereo not given in full),"inconclusive: 5.17 µM [cytotoxic, full curve]"
18,CC1(C)O[C@@H]2[C@H](O1)[C@@H](CO)O[C@H]2n1cnc2c(=O)[nH]cnc21,inactive
19,CCCCn1nc(C(=O)Nc2ccc(-n3cnnn3)cc2)c2ccccc2c1=O,"inconclusive: 29.1 µM [rising, single point]"
20,CC(=O)Oc1ccccc1Cn1c(C)c(C(=O)NCc2cccc(Cl)c2)sc1=O,"inconclusive: 20.6 µM [cytotoxic, single point]"
21,C=C(C)COc1ccc(-c2[nH]ncc2Oc2ccccc2OC)c(O)c1,inactive
22,CCC(=O)NNc1ccc(Br)cc1,inactive
23,O=C1Nc2ccccc2N(C(=O)c2ccc3ccccc3c2)C1c1nc2ccccc2[nH]1 (stereo not given),active: 16.4 µM
24,CC(NC(=O)Oc1cccc2ccccc12)c1ccccc1 (stereo not given),inactive
25,CCCCOc1cccc(C(=O)N(Cc2ccc(Cl)cc2)C2CCS(=O)(=O)C2)c1 (stereo not given),"inconclusive: 20.6 µM [cytotoxic, partial curve]"

row,Structure (SMILES),Potency
1,COc1ccc(CCNC(=O)CSc2nnc(-c3ccc(C)cc3)c(-c3ccc(C)cc3)n2)cc1OC,inactive
2,COc1ccc(CCNC(=S)NCCc2ccc(OC)c(OC)c2)cc1OC,"inconclusive: 20.6 µM [cytotoxic, single point]"
3,O=C1NC(=S)S/C1=C\c1cc2ccccc2nc1N1CCCCC1,inactive
4,CCOC(=O)c1cc2cc(OC)ccc2n1C1CCN(C)CC1,inactive
5,C=CCN(Cc1ccc(Cl)s1)C(=O)c1ccc(F)c(S(=O)(=O)N2CCOCC2)c1,inactive
6,COc1cc2c(cc1NC(=O)CN1C(=O)NC3(CCc4ccccc43)C1=O)oc1ccccc12 (stereo not given),"inconclusive: 18.4 µM [cytotoxic, single point]"
7,COc1ccc(-c2noc(CCC(=O)NCC3CCCO3)n2)cc1 (stereo not given),inactive
8,CS(=O)(=O)n1nc(-c2ccco2)nc1N,"inconclusive: 25.9 µM [cytotoxic, single point]"
9,CCSc1nnc([C@H](Cc2ccccc2)NC(=O)OC(C)(C)C)o1,active: 16.4 µM
10,O=C(NCC(=O)N1CCN(c2ncccn2)CC1)c1ccccc1OC(F)F,inactive
11,COc1ccc(CNC(=O)CN(C)c2nn3c(=O)cc(C)nc3s2)cc1,inactive
12,COC(=O)c1cc(S(=O)(=O)NCc2cc(OC)c(OC)c(OC)c2)cn1C,inactive
13,O=c1c2cc(Br)ccc2nc(-c2ccc([N+](=O)[O-])cc2)n1O,inactive
14,COc1ccc(C2=Nc3ccccc3N(C(=O)c3ccc4c(c3)OCO4)C2C(=O)NCc2ccccc2)cc1 (stereo not given),"inconclusive: 4.11 µM [cytotoxic, full curve]"
15,CCOC(=O)c1c(NC(=O)Nc2ccccc2)sc(C)c1C,"inconclusive: 5.8 µM [cytotoxic, partial curve]"
16,CCOC(=O)C[C@@H]1OC[C@H](Cc2ccccc2)N1S(=O)(=O)c1ccc(C)cc1,"inconclusive: 16.4 µM [cytotoxic, partial curve]"
17,OC1c2cc(Br)ccc2N=C2CCCCCN21 (stereo not given),"inconclusive: 20.6 µM [cytotoxic, single point]"
18,Cc1cc(Nc2ccccc2)n(-c2ccc(Br)cc2)n1,"inconclusive: 18.4 µM [cytotoxic, single point]"
19,COc1ccc(/C=C2\SC(=S)N(CC(=O)OCC(=O)Nc3ccc(C)cc3Cl)C2=O)cc1,inactive
20,COC(=O)c1ccc(NC(=O)CSc2nc3cc4ccccc4cc3[nH]2)cc1,inactive
21,CCCS(=O)(=O)NC(=O)C1(C)CCN(C(=O)c2ccco2)C1 (stereo not given),inactive
22,CCOc1ccc(CN(C(=O)c2cc3ccccc3oc2=O)C2CCS(=O)(=O)C2)cc1 (stereo not given),inactive
23,COc1cc(OC)c(NC(=O)C(C)n2nc(-c3ccc(C)cc3)c3c(c2=O)CCCC3)cc1Cl (stereo not given),"inconclusive: 20.6 µM [cytotoxic, single point]"
24,N#Cc1ccccc1NC(=O)C(=O)NCC(c1cccnc1)N1CCc2ccccc21 (stereo not given),inactive
25,O=C1NC[C@H](c2ccccc2)OC(=O)[C@H](Cc2ccc(F)cc2)C/C=C\C[C@@H]1CC(=O)N(CCO)Cc1ccccc1,"inconclusive: 23.1 µM [cytotoxic, single point]"

# Rewritten bar-delimited: five of the compounds above
row | Structure (SMILES) | Potency
13 | C=CCNc1ncnc2ccc(Br)cc12 | active: 20.6 µM
14 | C/C(=N\NC(=O)c1ccccc1O)c1ccc(NC(=O)Cc2ccccc2)cc1 | active: 16.4 µM
15 | COc1ccccc1C(=O)NCC(=O)Nc1ccc2c(c1)CCC2 | inconclusive: 9.2 µM [rising, partial curve, poor fit]
16 | CC1(C)Oc2ccc3ccc(=O)oc3c2/C(=C/NC2CCCCC2)C1=O | inconclusive: 6.51 µM [cytotoxic, full curve, poor fit]
17 | COC(=O)[C@@]1(Cc2ccc(F)cc2)[C@H]2C(CC(=O)C(=O)N3CCCC3)C(=O)C[C@H]2CN1C(=O)c1ccccc1 (stereo not given in full) | inconclusive: 5.17 µM [cytotoxic, full curve]

# Next compounds:

row,Structure (SMILES),Potency
1,O=[N+]([O-])c1csc2ccccc12,inactive
2,CCOC(=O)N1CCN(S(=O)(=O)c2ccc(C(=O)Nc3nnc(CSC)o3)cc2)CC1,inactive
3,COc1ccc([C@H]2C[C@H](O)[C@@H](n3cc(-c4ccc(F)cc4)nn3)CN2CC2CCCCC2)cc1,"inconclusive: 20.6 µM [cytotoxic, single point]"
4,CNc1cncc(-c2cc(C)c(O)c(C)c2)n1,"inconclusive: 18.4 µM [cytotoxic, single point]"
5,O=C(CSc1ccccn1)Nc1nonc1[N+](=O)[O-],active: 10.3 µM
6,COc1cccc(NC(=O)Nc2cccs2)c1,inactive
7,CC(C)(C)n1nnnc1C(c1ccc(F)cc1)N(Cc1ccc(F)cc1)Cc1ccco1 (stereo not given),"inconclusive: 23.1 µM [cytotoxic, single point]"
8,COc1cc2oc(=O)ccc2cc1-c1c(OC)ccc2ccc(=O)oc12,"inconclusive: 20.6 µM [cytotoxic, partial curve, poor fit]"
9,CCn1c(O)c(C2=c3ccccc3=NC2=O)c2cc(Br)ccc21,inactive
10,NC(=O)Cn1cnc2c(nnn2-c2cccc(Cl)c2)c1=O,"inconclusive: 29.1 µM [rising, single point]"
11,CCOC(=O)N1CCC(N2CCCC(C(=O)c3ccc4cc(OC)ccc4c3)C2)CC1 (stereo not given),inactive
12,CCOC(=O)N1CCC(NC(=O)c2oc3c(c2C)-c2[nH]ncc2CC3)CC1,"inconclusive: 8.2 µM [cytotoxic, partial curve]"
13,Cc1cccc(Nc2nc(N3CCCC3)nc(N3CCCC3)n2)c1,active: 9.2 µM
14,CCn1c(C)nc2cc(C(N)=O)ccc21,"inconclusive: 25.9 µM [rising, single point]"
15,CC(C)c1ccc(C2C3=C(CC(C)(C)CC3=O)NC3=C2C(=O)c2ccccc23)cc1 (stereo not given),"inconclusive: 20.6 µM [cytotoxic, partial curve, poor fit]"
16,Cc1ccc(S(=O)(=O)N(CC(=O)NCCC2=CCCCC2)Cc2ccccc2F)cc1,"inconclusive: 18.4 µM [cytotoxic, single point]"
17,CCc1ccc(C(=O)Nc2cccc(-c3nc4cc(C(C)C)ccc4o3)c2)cc1,inactive
18,Cc1ccc(S(=O)(=O)NCC(c2ccc3c(c2)OCO3)N2CCOCC2)cc1 (stereo not given),"inconclusive: 23.1 µM [cytotoxic, partial curve, poor fit]"
19,OC(c1ccccc1)c1nc(-c2ccccc2)cs1 (stereo not given),"inconclusive: 29.1 µM [cytotoxic, single point]"
20,NNc1nc(-c2ccccc2Cl)c2cc(Br)ccc2n1,inactive
21,O=C(Cc1c[nH]c2ccccc12)N/N=C/c1ccccc1O,"inconclusive: 5.8 µM [cytotoxic, partial curve]"
22,CCn1c(=O)c(C(=O)NCCc2ccccc2)c(O)c2ccccc21,"inconclusive: 29.1 µM [cytotoxic, single point]"
23,CCCCC(Br)C(=O)Nc1ccc(S(=O)(=O)Nc2cc(C)nc(C)n2)cc1 (stereo not given),inactive
24,COc1cc(C2=CN(Cc3ccccc3)CCC2=O)cc(OC)c1OC,"inconclusive: 18.4 µM [cytotoxic, single point]"
25,CCn1cc(C(=O)NCc2ccccc2Cl)c(=O)c2cc(S(=O)(=O)N3CCCCCC3)ccc21,"inconclusive: 16.4 µM [cytotoxic, single point]"
